The structures given here were assigned with low confidence; some may be wrong.

Sequences of proteins named here, by UniProt entry; tags and fusion partners are left off.
UniProt P04150, whole entry: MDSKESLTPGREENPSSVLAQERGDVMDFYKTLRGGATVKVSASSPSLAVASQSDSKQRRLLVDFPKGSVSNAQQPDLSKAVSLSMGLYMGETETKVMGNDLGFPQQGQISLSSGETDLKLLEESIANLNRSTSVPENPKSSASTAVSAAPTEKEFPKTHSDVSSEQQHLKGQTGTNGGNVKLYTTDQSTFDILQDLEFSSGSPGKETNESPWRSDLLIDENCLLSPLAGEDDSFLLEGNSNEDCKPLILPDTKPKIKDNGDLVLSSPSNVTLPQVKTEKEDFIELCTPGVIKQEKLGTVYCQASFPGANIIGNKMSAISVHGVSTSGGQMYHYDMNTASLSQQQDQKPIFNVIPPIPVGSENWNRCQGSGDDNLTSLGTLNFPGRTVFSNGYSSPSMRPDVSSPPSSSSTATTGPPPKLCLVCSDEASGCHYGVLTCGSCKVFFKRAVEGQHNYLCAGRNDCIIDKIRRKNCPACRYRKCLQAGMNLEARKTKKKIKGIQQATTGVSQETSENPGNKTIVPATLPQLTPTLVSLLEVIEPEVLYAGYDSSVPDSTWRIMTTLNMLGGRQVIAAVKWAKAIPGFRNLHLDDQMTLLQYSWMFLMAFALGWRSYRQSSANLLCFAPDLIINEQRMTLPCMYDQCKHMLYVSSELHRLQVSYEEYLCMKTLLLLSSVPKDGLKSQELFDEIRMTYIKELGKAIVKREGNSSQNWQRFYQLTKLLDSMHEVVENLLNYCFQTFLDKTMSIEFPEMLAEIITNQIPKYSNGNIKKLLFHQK

The target of experiment [1] is Glucocorticoid Receptor (GR) (Homo sapiens, UniProt P04150). The experiment in a line: GR Fluorescence Polarization Assay (PolarScreen Glucocorticoid Receptor Competitor Assay, Red). The conditions noted are these: read-out: GR binding, IC50 class ranges.
Experiment [2] concerns IL-6 in A549 cells stimulated with IL-1β. The experiment in a line: A549 Cell Assay to Measure Inflammation Markers (inhibition of IL-1β-induced IL-6). The conditions noted are these: intrinsic activity, Emax class ranges.

As usually defined, the IC50 is the midpoint of a concentration-inhibition curve. Turning to `Cc1cc(Cl)ccc1[C@@H]1SC[C@@H](C)Nc2c1c(C)nn2C` (relative stereo), in experiment [1], the 50% inhibitory concentration (IC50) was less than 100 nM. In experiment [2], the “A549 Emax” value is “D (a compound with Emax<50%)”.
